Literature values in patent US12042557B2, “Rapid establishment and/or termination of substantial steady-state drug delivery” (Intarcia Therapeutics, Inc., priority 2009, dated 2024).
Where two headings read alike, the source gives them in different places. For at least one compound, name, drawing or mass did not settle the structure.

Key:
[1] = system: subjects on metformin-only background treatment, type 2 diabetes mellitus
[2] = Treatment G: oral once a day (15 mg, 30 mg, or 45 mg), metformin background; Bergenstal 2010
[3] = Treatment G: oral once a day (15 mg, 30 mg, or 45 mg), metformin background, Bergenstal 2010
[4] = Treatment G: oral once a day, subjects with baseline HbA1c less than 9.0

## CCc1ccc(CCOc2ccc(CC3SC(=O)NC3=O)cc2)nc1 (stereo not drawn) [pioglitazone, Pioglitazone]
[1]; [3]
  change of HbA1c for the study: −1.2%
  endpoint HbA1c %: 7.3%
  percentage of subjects who achieved an HbA1c of 7% or less: 43%
[1]; [4]
  change of HbA1c for the study: −0.9%
  endpoint HbA1c %: 6.9%
[2]
  weight gain or loss for the study: +2.8 kg
